Patent publication US20240336701A1
Results are given in words; binding and its absence hold for the method and conditions named.

Biological target: T1, human ENTPD1 (CD39), full length, on NIH/3T3 cells (human) (UniProt P49961)
T1 sequence: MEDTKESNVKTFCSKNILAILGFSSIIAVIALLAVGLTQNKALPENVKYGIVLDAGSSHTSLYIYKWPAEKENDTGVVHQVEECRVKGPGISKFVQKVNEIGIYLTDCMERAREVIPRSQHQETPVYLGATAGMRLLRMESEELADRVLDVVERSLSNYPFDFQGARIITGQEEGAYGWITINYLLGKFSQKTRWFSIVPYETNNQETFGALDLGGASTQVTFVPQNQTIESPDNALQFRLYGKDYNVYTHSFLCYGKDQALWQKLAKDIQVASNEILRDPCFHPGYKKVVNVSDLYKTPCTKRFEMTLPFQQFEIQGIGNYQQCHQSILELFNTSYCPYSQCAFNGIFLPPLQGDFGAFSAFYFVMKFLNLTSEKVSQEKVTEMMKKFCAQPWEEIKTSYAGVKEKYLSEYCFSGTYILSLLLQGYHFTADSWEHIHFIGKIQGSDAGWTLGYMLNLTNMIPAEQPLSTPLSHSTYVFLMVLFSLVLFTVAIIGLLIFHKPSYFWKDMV
Assay: flow cytometry, NIH/3T3 cells expressing human ENTPD1

binding: no binding (tested: >100 nM)
B1: ANTI-HUMAN ENTPD2 MAB8 (antibody, human IgG1, lambda, V domains shown)
VH: QVQLQQSGPGLVKPSQTLSLTCAISGDSVSSSSAAWNWIRQSPSRGLEWLGRIYYRSKWYNDYAVSVKSRITINPDTSKNQFSLQLNSVTPEDTAVYYCARGSYVTSSYEGFDYWGQGTLVTVSS
VL: SYELTQPLSVSVALGQTARITCSGDNLPEKYAYWYQQKPGQAPVLVIYDDNKRPSGIPERFSGSNSGNTATLTISRAQAGDEADYYCQSYGKWGWTWVFGGGTKLTVLG
